The results in this text go back to patent publication US20150111231A1.

No constants are given. Whether binding was seen depends on the method and setting. Some binding calls cover weakened binding; strength is not graded here.

The target of test [1] is anti-internal structure antibody 5H10. The experiment in a line: competitive ELISA of 5H10, unlabelled peptide varied against the biotinylated internal structural peptide. (In an ELISA, binding on a coated surface is turned into a signal by an enzyme label.)
In test [2] the target is T1, Fragment4 (SEQ ID No.: 11).
T1 sequence (peptide): TTRPGSGLTN
Briefly: competitive ELISA with fragment peptides 1-4 (FIG. 5).

B1: Fragment4 (SEQ ID No.: 11) (peptide)
peptide: TTRPGSGLTN
B1: the binding entry in test [1] was “binds”.

B2: anti-internal structure antibody 5H10 (antibody, IgG1, V domains shown)
VH: QVQLQQSGTELAKPGASVKMSCKASGYTFIDYWMHWIKQSPGQGLEWIGFINPRSGSTTYNQKFRDKATLTVDTSSSTAYMQLTSLTSEDSAVYYCTRPDFDYFDYWGQGTTLTVSS
VL: DVLMTQTPLSLPVSLGDHASISCRSSQSIVQSNGNTYLEWYLQKPGQSPKLLIYKVSNRFSGVPDRFSGSGSGTDFTLKISSVEAEDLGIYYCFQASHVPLTFGAGTKLELKR
Consider B2, for which, in test [2], the binding entry is “binds”.
